Primary screen of a compound library

Values are the deposited “Percent Effect”, in %.
The controls that fix the scale are not given in the record; negative values are as filed.
The compounds are a random part of those screened.
A dash means the value is not listed here; it may have been measured.

Mtb heat-shock: 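Assay on Mycobacterium tuberculosis, filed only as a heat shock assay from Cornell; the read-out is not stated. The concentration is filed as 10 mM, unlikely as a test dose, so the dose is not known. Higher reads as stronger inhibition (inferred: compounds with an IC50 in retests scored well above the rest). Size under these conditions: about 69,000 compounds, about 930 of them at 50% or above in at least one test.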
Mtb growth Cornell: 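Whole-cell assay for inhibitors of Mycobacterium tuberculosis growth, labelled Cornell in the record; the read-out is not stated. The concentration is filed as 10 mM, unlikely as a test dose, so the dose is not known. Higher means stronger inhibition (inferred from two other growth screens of the library). About 53,000 compounds were tested under these conditions; 1.7% (about 900) showed 50% or more at least once.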

structure,Mtb heat-shock,Mtb growth Cornell
O=C(c1ccncc1)N1CCC(Cc2cnc3[nH]ccc3c2)CC1,-5.094,-105.2
COc1ccc(CCNc2cc(-c3nc(C)no3)ccn2)cc1OC,-41.17,-1.715
CN(C)Cc1nc(C(C)(C)NC(=O)c2nc3ccccc3s2)no1,-8.17,-
CCC(C)[C@H](NC(=O)c1cc(F)ccc1-n1cnnn1)C(=O)OC (stereo partly shown),25.4,12.93
Cc1n[nH]c(C)c1C1COCCN1C(=O)c1cc(Cl)c[nH]1 (stereo not shown),-7.057,-4.042
CCNc1cc2c(nn1)CCN(C(=O)c1ccc(-n3cnnc3)cc1)C2,0.2359,-
CC(O)CN1CCC(CN(C)Cc2cc(C#N)ccc2F)CC1 (stereo not shown),14.93,18.35
CC1CN(C(=O)c2ccn(C)c(=O)c2)c2ccccc2NC1=O (stereo not shown),10.01,9.19
O=C(NCc1nccs1)N1CCOC(c2ccccc2Cl)C1 (stereo not shown),-19,-17.83
[H][C@]12CC[C@]([H])(CN(c3nccc(N)n3)C1)N(CC1CCC1)C2=O,-36.22,-13.63
COCCNc1ncc(-c2cccc(OC)c2)c(-c2nccn2C)n1,0.6541,14.74
CC1CN(CCc2ccncc2)CCO1 (stereo not shown),9.543,3.203
COCCc1noc(CN2CCN(c3ccc(OC)cc3)C(=O)C2C)n1 (stereo not shown),-47.92,-24.73
CCc1cc(O)nc(C2CCCN2C(=O)c2cc(C)no2)n1 (stereo not shown),-37.71,-
Cc1cc(NC(=O)CN2CCc3cncnc3C2)on1,-5.062,-
N#CC(NC(=O)CNC(=O)c1ccccc1)c1ccsc1 (stereo not shown),5.603,37.85
COCCOc1ccc(NC(=O)N2CCCC2c2ccncc2)cn1 (stereo not shown),-15.41,-
FC(F)(F)c1nc(NC2CCCCC2)c2ccccc2n1,39.11,-
Cc1csc(N2CCCN(Cc3ccn(C)c(=O)c3)CC2)n1,-44.56,-
CCc1c(C(=O)N2CCCC(N(C)C)C2)cnn1C(C)(C)C (stereo not shown),-16.16,-
CC(C)c1cc(N[C@H](C(N)=O)C(C)C)n2nccc2n1,0.8809,0.6137
CN(C(=O)c1cccn1C)C1CCC(NC(=O)OC(C)(C)C)CC1 (stereo not shown),-14.16,-23.75
O=C(NC[C@H]1O[C@H](Cc2cc(-c3ccccn3)on2)CC[C@@H]1O)C1CC1,1.501,4.007
Cc1csc(C2CCCN(C(=O)c3c(C)nn4cccnc34)C2)n1 (stereo not shown),-26.27,-
Cn1cc(-c2ccnc(NCC3CC3)n2)cn1,-12.33,15.4
CC(=O)N1CCCN(C(=O)CCc2c(C)noc2C)CC1,-5.976,-
CCN(C)c1ncnc2c1CCN(C(=O)c1ccoc1C)CC2.O=C(O)C(F)(F)F,-5.379,5.515
CCn1nc(C)c(CCNC(=O)C2CCCN(C(C)=O)C2)c1C (stereo not shown),-2.74,17.02
CN(Cc1ccccc1)C(=O)CCNS(=O)(=O)c1cccnc1,-12.5,0.6944
CCN(C)C(=O)Nc1cc(F)c(OC)cc1F,-22.72,-
Cc1cc(C2CCCN(C(=O)c3cccnc3)C2)ccn1 (stereo not shown),-2.897,-13.34
Cc1cc2nc(C(C)C)cc(N3CCSCC3)n2n1,13.87,-12.34
COc1ccc(CC2(CO)CCN(c3cc(C(N)=O)ccn3)CC2)cc1,-12.22,-2.033
O=C(O)C(F)(F)F.[H][C@@]12CCN(Cc3ccoc3)[C@]1([H])CC[C@H](C(=O)NCc1cccs1)O2,-28.95,-
O=C(CCCc1ccc(F)cc1)N1C[C@@H](CN2CCOCC2)[C@@H](CO)C1,11.9,-38.79
COCCN1CCC(NCc2cccc(C)c2)C1 (stereo not shown),-0.8303,-
CN(C)CCCn1ccnc1C1CCCN(c2ncc(Cl)cc2F)C1 (stereo not shown),-33.23,30.34
CN(CCOc1cccc(CNS(C)(=O)=O)c1)C1CCOCC1,-11.92,-11.04
COc1cc2c(cc1CN1CCCCC1CN1CCOCC1)CCC2 (stereo not shown),-4.482,-
[H][C@]12CC[C@]([H])(CN(Cc3nnc(C4CC4)o3)C1)N(Cc1ccccc1)C2,-5.775,11.7
O=C(CN1CCCCCC1=O)NCC1CCN(c2ccccc2)C1 (stereo not shown),4.33,24.52
CCN(CC(=O)NC)S(=O)(=O)N1CCCCCC1,-8.383,20.95
CCS(=O)(=O)N1CCC(c2nnc(Cn3cccn3)n2C2CC2)CC1,2.061,19.32
O=C(O)C(F)(F)F.[H][C@]12CN(Cc3ccncc3)C(=O)[C@@]1([H])CN(c1ncccn1)C2,-5.284,15.65
O=C(O)C(F)(F)F.O=C(O)C(F)(F)F.O=C(O)C(F)(F)F.c1cncc(CN2CCCC3(COCCN(c4cnccn4)C3)C2)c1 (stereo not shown),-34.23,20.49
COc1nc(N2CCN(C(C)=O)CC2)ncc1Br,-7.207,-3.72
O=C(O)C(F)(F)F.[H][C@@]12CN(Cc3ccc(OC)cc3)C[C@]1([H])C(=O)N(c1ccsc1)C2,16.76,24.77
CN(Cc1cccc2cnccc12)C(=O)CCc1n[nH]c2c1CCCC2,0.2279,-
CO[C@@]1(C)C[C@@H](O)C12CCN(C(=O)CCn1c(C)cccc1=O)CC2,0.1784,-26.91
C1CCN(CCOC2CCNCC2)CC1,-4.273,10.17
O=C(O)C(F)(F)F.O=C(O)C(F)(F)F.O=C(O)C(F)(F)F.[H][C@@]12COC[C@]1(COc1cccnc1)CN(Cc1cccnc1OC)C2,-6.58,25.94

Some entries from above, unchanged:

{"structure": "CCN(C)C(=O)Nc1cc(F)c(OC)cc1F", "Mtb heat-shock": -22.72}
{"structure": "O=C(O)C(F)(F)F.O=C(O)C(F)(F)F.O=C(O)C(F)(F)F.c1cncc(CN2CCCC3(COCCN(c4cnccn4)C3)C2)c1", "stereo": "stereo not shown", "Mtb heat-shock": -34.23, "Mtb growth Cornell": 20.49}
{"structure": "[H][C@]12CC[C@]([H])(CN(Cc3nnc(C4CC4)o3)C1)N(Cc1ccccc1)C2", "Mtb heat-shock": -5.775, "Mtb growth Cornell": 11.7}
{"structure": "CN(C(=O)c1cccn1C)C1CCC(NC(=O)OC(C)(C)C)CC1", "stereo": "stereo not shown", "Mtb heat-shock": -14.16, "Mtb growth Cornell": -23.75}
{"structure": "CN(CCOc1cccc(CNS(C)(=O)=O)c1)C1CCOCC1", "Mtb heat-shock": -11.92, "Mtb growth Cornell": -11.04}
{"structure": "COCCc1noc(CN2CCN(c3ccc(OC)cc3)C(=O)C2C)n1", "stereo": "stereo not shown", "Mtb heat-shock": -47.92, "Mtb growth Cornell": -24.73}

The values are deposited in ChEMBL (CHEMBL3988442, “University of Dundee, Small-Polar-MMV Screening Library” (2021)).